PubChem BioAssay AID1224826, NIAID – 2016

- Purpose: 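Knock-downs that raise or lower Tnf reporter signal after endotoxin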 (primary screen)
- Cells: RAW264.7 G9 macrophages from mouse bearing reporters for p65 (GFP) and the Tnf promoter (mCherry)
- Reagent: siRNA pool against mouse genes, 100 nM
- Timing: 16 h of LPS stimulation, after 2 days of siRNA transfection
- Conditions: bacterial lipopolysaccharide (Salmonella minnesota R595), 10 ng/ml
- Read-out: 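Nuclear mCherry signal of the Tnf promoter reporter measured by imaging after background removal, scaled to each plate median and turned into robust z-scores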
- Direction: Tnf reporter robust z-score: higher = stronger Tnf promoter reporter signal after LPS; Tnf reporter intensity: higher = stronger Tnf promoter reporter signal
- Active means: 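a well counts as active at a score of -1.3 or below (Tlr4 knock-down control median) or above 3 (raised signal); controls and wells holding fewer than 50 cells are excluded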
- Calls: active = Tnf reporter clearly lowered or raised; inactive = no clear change in Tnf reporter
This is one part, drawn at random, of about 17,000 deposited reagents. About 1,110 of them (6.6%) were called active. 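Active means lowered or raised reporter signal; replicate intensities are raw and not normalised per plate.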

| gene knocked down | Tnf reporter robust z-score | fewer than 50 cells in well | Tnf reporter intensity, replicate 1 | Tnf reporter intensity, replicate 2 | call |
| --- | --- | --- | --- | --- | --- |
| Mag (myelin-associated glycoprotein) | 2.07 | enough cells in well | 328 | 244 | inactive |
| Ube2k (ubiquitin-conjugating enzyme E2K) | -0.27 | enough cells in well | 205 | 181 | inactive |
| Rpa3 (replication protein A3) | 0.08 | enough cells in well | 129 | 134 | inactive |
| Tasp1 (taspase, threonine aspartase 1) | – | fewer than 50 cells per well; well left out of calls | 154 | 71.5 | inactive |
| Sash3 (SAM and SH3 domain containing 3) | 2.04 | enough cells in well | 355 | 138 | inactive |
| Nsmaf | -1.1 | enough cells in well | 140 | 123 | inactive |
| Rgs18 (regulator of G-protein signaling 18) | 2.98 | enough cells in well | 240 | 273 | inactive |
| Copz2 (coatomer protein complex, subunit zeta 2) | 0.04 | enough cells in well | 172 | 195 | inactive |
| Slc22a8 | 1.36 | enough cells in well | 152 | 143 | inactive |
| 4632433K11Rik (RIKEN cDNA 4632433K11 gene) | -1.03 | enough cells in well | 120 | 41.2 | inactive |
| Osbpl2 (oxysterol binding protein-like 2) | – | fewer than 50 cells per well; well left out of calls | 88 | 56.1 | inactive |
| Arhgef19 (Rho guanine nucleotide exchange factor 19) | 0.37 | enough cells in well | 245 | 169 | inactive |
| Zfp53 (zinc finger protein 53) | 1.06 | enough cells in well | 165 | 174 | inactive |
| Or8h7 (olfactory receptor family 8 subfamily H member 7) | -0.08 | enough cells in well | 177 | 151 | inactive |
| Or52r1c (olfactory receptor family 52 subfamily R member 1C) | 1.26 | enough cells in well | 139 | 170 | inactive |
| Serinc5 (serine incorporator 5) | 1.23 | enough cells in well | 218 | 244 | inactive |
| 1700084P21Rik (RIKEN cDNA 1700084P21 gene) | 0.45 | enough cells in well | 264 | 97.3 | inactive |
| Ccdc181 (coiled-coil domain containing 181) | – | fewer than 50 cells per well; well left out of calls | 258 | 85.8 | inactive |
| Magohb (mago homolog B, exon junction complex core component) | – | fewer than 50 cells per well; well left out of calls | 112 | 47 | inactive |
| Fcrl2 (Fc receptor like 2) | 0.11 | enough cells in well | 183 | 139 | inactive |
| Zfp90 (zinc finger protein 90) | 0.92 | enough cells in well | 172 | 153 | inactive |
| Rubcn | 0.48 | enough cells in well | 247 | 117 | inactive |
| Rps26 (ribosomal protein S26) | -0.27 | enough cells in well | 126 | 107 | inactive |
| Bhlhe41 (basic helix-loop-helix family, member e41) | 0.14 | enough cells in well | 54.9 | 171 | inactive |

Part of the list above in another layout:
4632433K11Rik (RIKEN cDNA 4632433K11 gene) — Tnf reporter robust z-score: -1.03; fewer than 50 cells in well: enough cells in well; Tnf reporter intensity, replicate 1: 120; Tnf reporter intensity, replicate 2: 41.2; call: inactive
Osbpl2 (oxysterol binding protein-like 2) — fewer than 50 cells in well: fewer than 50 cells per well; well left out of calls; Tnf reporter intensity, replicate 1: 88; Tnf reporter intensity, replicate 2: 56.1; call: inactive
